Data from PMC6066478, “Structural visualization of RNA polymerase III transcription machineries” (Cell Discovery, 2018).
Results are given in words; binding and its absence hold for the method and conditions named. Some binding calls cover weakened binding; strength is not graded here. Sequences can lack the tags named with a protein.

T1: Brf1 (TFIIB-related factor), the Brf1N and Brf1C parts of the chimera Brf1N-TBPc-Brf1C (Saccharomyces cerevisiae) (UniProt P29056)
T1 sequence: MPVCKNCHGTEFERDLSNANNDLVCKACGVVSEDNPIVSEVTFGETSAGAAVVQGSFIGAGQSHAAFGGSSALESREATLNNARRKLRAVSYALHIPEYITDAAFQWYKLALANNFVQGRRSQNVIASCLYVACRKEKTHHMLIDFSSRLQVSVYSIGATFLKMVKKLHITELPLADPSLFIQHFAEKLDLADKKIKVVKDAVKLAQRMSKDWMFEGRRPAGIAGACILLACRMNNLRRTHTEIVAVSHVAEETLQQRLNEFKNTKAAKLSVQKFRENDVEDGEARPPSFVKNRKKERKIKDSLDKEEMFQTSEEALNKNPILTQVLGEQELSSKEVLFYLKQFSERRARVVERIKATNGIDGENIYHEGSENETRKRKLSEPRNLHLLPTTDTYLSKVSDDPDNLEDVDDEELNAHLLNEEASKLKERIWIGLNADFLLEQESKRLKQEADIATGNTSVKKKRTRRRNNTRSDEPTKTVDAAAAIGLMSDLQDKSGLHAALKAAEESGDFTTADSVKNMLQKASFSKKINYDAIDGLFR

T2: C34 subunit of Pol III (Saccharomyces cerevisiae) (UniProt P32910)
T2 sequence: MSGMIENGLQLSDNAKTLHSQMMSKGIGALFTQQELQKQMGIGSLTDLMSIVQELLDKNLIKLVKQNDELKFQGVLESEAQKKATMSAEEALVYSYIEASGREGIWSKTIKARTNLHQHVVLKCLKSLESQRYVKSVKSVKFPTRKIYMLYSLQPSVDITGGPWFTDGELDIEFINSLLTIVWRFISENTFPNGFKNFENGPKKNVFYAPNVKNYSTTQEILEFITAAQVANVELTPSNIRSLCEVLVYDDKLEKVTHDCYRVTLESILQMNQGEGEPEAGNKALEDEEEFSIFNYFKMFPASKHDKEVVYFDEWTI

T3: TATA box-binding protein (TBP) core domain, the TBPc part of the chimera Brf1N-TBPc-Brf1C (Saccharomyces cerevisiae) (UniProt P13393)
T3 sequence: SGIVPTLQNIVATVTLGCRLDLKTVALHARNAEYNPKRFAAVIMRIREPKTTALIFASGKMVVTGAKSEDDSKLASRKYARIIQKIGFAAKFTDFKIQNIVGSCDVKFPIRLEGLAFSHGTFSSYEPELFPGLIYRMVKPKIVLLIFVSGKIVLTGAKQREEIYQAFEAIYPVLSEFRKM


How the values were obtained:
[1] = target: T1, Brf1 (TFIIB-related factor), the Brf1N and Brf1C parts of the chimera Brf1N-TBPc-Brf1C (Saccharomyces cerevisiae); assay: cryo-EM structure; Pol III ITC, 4.1 Å: Pol III (~1 µM) with biotinylated tN(GUU)C promoter scaffold (16-nt mismatched bubble, 6-nt RNA), then Brf1N-TBPc-Brf1C and Bdp1 at about 2:1 to Pol III, room temperature; held on streptavidin beads, eluted with EcoRI-HF, crosslinked with 0.19% glutaraldehyde; both purified
[2] = target: T1, Brf1 (TFIIB-related factor), the Brf1N and Brf1C parts of the chimera Brf1N-TBPc-Brf1C (Saccharomyces cerevisiae); assay: cryo-EM structure; Pol III OC, 4.1 Å (TFIIIB 4.7 Å with soft mask): same assembly on the OC scaffold with a 10-nt mismatched bubble; both purified
[3] = target: T1, Brf1 (TFIIB-related factor), the Brf1N and Brf1C parts of the chimera Brf1N-TBPc-Brf1C (Saccharomyces cerevisiae); assay: cryo-EM structure; Pol III nOC (natural OC), 4.8 Å: same assembly on the CC scaffold, a fully complementary duplex that was found melted; both purified
[4] = target: T2, C34 subunit of Pol III (Saccharomyces cerevisiae); assay: cryo-EM structure; Pol III ITC, 4.1 Å: Pol III (~1 µM) with biotinylated tN(GUU)C promoter scaffold (16-nt mismatched bubble, 6-nt RNA), then Brf1N-TBPc-Brf1C and Bdp1 at about 2:1 to Pol III, room temperature; held on streptavidin beads, eluted with EcoRI-HF, crosslinked with 0.19% glutaraldehyde; both purified
[5] = target: T3, TATA box-binding protein (TBP) core domain, the TBPc part of the chimera Brf1N-TBPc-Brf1C (Saccharomyces cerevisiae); assay: as above
[6] = target: T2, C34 subunit of Pol III (Saccharomyces cerevisiae); assay: cryo-EM structure; Pol III OC, 4.1 Å (TFIIIB 4.7 Å with soft mask): same assembly on the OC scaffold with a 10-nt mismatched bubble; both purified
[7] = target: T3, TATA box-binding protein (TBP) core domain, the TBPc part of the chimera Brf1N-TBPc-Brf1C (Saccharomyces cerevisiae); assay: as above
[8] = target: T2, C34 subunit of Pol III (Saccharomyces cerevisiae); assay: cryo-EM structure; Pol III nOC (natural OC), 4.8 Å: same assembly on the CC scaffold, a fully complementary duplex that was found melted; both purified
[9] = target: T3, TATA box-binding protein (TBP) core domain, the TBPc part of the chimera Brf1N-TBPc-Brf1C (Saccharomyces cerevisiae); assay: as above

| binding [1] | binding [2] | binding [3] | binding [4] | binding [5] | binding [6] | binding [7] | binding [8] | binding [9] | Binder |
| --- | --- | --- | --- | --- | --- | --- | --- | --- | --- |
| binds | binds | binds |  |  |  |  |  |  | Bdp1 (B double prime) (protein, UniProt P46678 1-594) MSSIVNKSGTRFAPKVRQRRAATGGTPTPKPRTPQLFIPESKEIEEDNSDNDKGVDENETAIVEKPSLVGERSLEGFTLTGTNGHDNEIGDEGPIDASTQNPKADVIEDNVTLKPAPLQTHRDQKVPRSSRLASLSKDNESRPSFKPSFLDSSSNSNGTARRLSTISNKLPKKIRLGSITENDMNLKTFKRHRVLGKPSSAKKPAGAHRISIVSKISPPTAMTDSLDRNEFSSETSTSREADENENYVISKVKDIPKKVRDGESAKYFIDEENFTMAELCKPNFPIGQISENFEKSKMAKKAKLEKRRHLRELRMRARQEFKPLHSLTKEEQEEEEEKRKEERDKLLNADIPESDRKAHTAIQLKLNPDGTMAIDEETMVVDRHKNASIENEYKEKVDENPFANLYNYGSYGRGSYTDPWTVEEMIKFYKALSMWGTDFNLISQLYPYRSRKQVKAKFVNEEKKRPILIELALRSKLPPNFDEYCCEIKKNIGTVADFNEKLIELQNEHKHHMKEIEEAKNTAKEEDQTAQRLNDANLNKKGSGGIMTNDLKVYRKTEVVLGTIDDLKRKKLKERNNDDNEDNEGSEEEPEIDQ |
|  |  |  | binds | binds | binds | binds | binds | binds | Brf1 (TFIIB-related factor), the Brf1N and Brf1C parts of the chimera Brf1N-TBPc-Brf1C (domain or fragment, UniProt P29056 1-382; P29056 439-596) MPVCKNCHGTEFERDLSNANNDLVCKACGVVSEDNPIVSEVTFGETSAGAAVVQGSFIGAGQSHAAFGGSSALESREATLNNARRKLRAVSYALHIPEYITDAAFQWYKLALANNFVQGRRSQNVIASCLYVACRKEKTHHMLIDFSSRLQVSVYSIGATFLKMVKKLHITELPLADPSLFIQHFAEKLDLADKKIKVVKDAVKLAQRMSKDWMFEGRRPAGIAGACILLACRMNNLRRTHTEIVAVSHVAEETLQQRLNEFKNTKAAKLSVQKFRENDVEDGEARPPSFVKNRKKERKIKDSLDKEEMFQTSEEALNKNPILTQVLGEQELSSKEVLFYLKQFSERRARVVERIKATNGIDGENIYHEGSENETRKRKLSEPRNLHLLPTTDTYLSKVSDDPDNLEDVDDEELNAHLLNEEASKLKERIWIGLNADFLLEQESKRLKQEADIATGNTSVKKKRTRRRNNTRSDEPTKTVDAAAAIGLMSDLQDKSGLHAALKAAEESGDFTTADSVKNMLQKASFSKKINYDAIDGLFR |
